# Experimental data from patent US12076341B2, “Use of apoptotic compensatory proliferation signaling vesicles in tissue repair and wound healing” (Rush University Medical Center, priority 2018, dated 2024).
# At least one compound was matched to its structure with a doubt left.
# Experiments:
# JNK1/2 = JNK1/2 activation (phosphorylation) in recipient Hela cells by Western blotting; format: cell-based; settings: Hela cells pre-treated with 20 μM SP600125 2 h prior to vesicle treatment
# Hela cells = test: Proliferation assay by cell counts, adherent Hela cells treated with 16K fraction vesicles; format: cell-based; settings: pre-treatment with 20 μM SP600125 2 h prior to vesicles; cell counts 24 h
# Description: Generation and Purification of ACPSVs: 7.5×10^6 cells were cultured in 150 mm^2 flasks (TPP) overnight in 25 mL of indicated media. Next day, cells were induced to undergo intrinsic apoptosis by serum-starvation, extrinsic apoptosis apoptosis by treatment with anti-Fas mAb (abcam-ab11881), or anoikis apoptosis by growing the cells detached from the surface in suspension media in Thermo Scientific Nunclon Sphera plates, in the presence or absence of Z-VAD. 24 to 48 h after induction of apoptosis, culture supernatants from serum-fed healthy (Mock) and apoptotic cells were collected and subjected to differential centrifugation. […] The proliferation-inducing effect associated with each fraction was determined by cell counts after growing recipient cells for 24 h at 37° C. in the presence of 5% CO2, using a hemocytometer after trypsin digestion.
# Proliferation Assay. […] The next day at the time of treatment with vesicles, the initial cell number per well (0 h) was determined by trypsin digestion and cell counts using a hemocytometer. […] Proliferation rates were determined blindly by cell counts determination using a hemocytometer.
smiles,measurement,setting,value
Oc1c2ccccc2c2c3c(cccc13)N=N2 [SP600125],ACPSV-induced JNK activation,JNK1/2,inhibited
same,ACPSV-induced compensatory proliferation in recipient Hela cells,Hela cells,significantly reduced
